Values of other authors in patent publication US20210137911A1, “NOVEL CHRONOTHERAPY BASED ON CIRCADIAN RHYTHMS” (THE TRUSTEES OF THE UNIVERSITY OF PENNSYLVANIA, priority 2014, published 2021).

Settings: half-life of therapeutic compound as listed in Table 1; cited from earlier work

Structure (SMILES): COC(=O)C1=C(C)NC(C)=C(C(=O)OC)C1c1ccccc1[N+](=O)[O-] [Nifedipine]
- ½ Life: 2 h
